# PubChem BioAssay AID743255 (National Center for Advancing Translational Sciences (NCATS), 2014)
# By UniProt entry, the sequences of proteins in these tests, tags left out. Where a name states a change or a piece, a line headed by the entry shows the natural chain unless it says otherwise.
# UniProt O94782: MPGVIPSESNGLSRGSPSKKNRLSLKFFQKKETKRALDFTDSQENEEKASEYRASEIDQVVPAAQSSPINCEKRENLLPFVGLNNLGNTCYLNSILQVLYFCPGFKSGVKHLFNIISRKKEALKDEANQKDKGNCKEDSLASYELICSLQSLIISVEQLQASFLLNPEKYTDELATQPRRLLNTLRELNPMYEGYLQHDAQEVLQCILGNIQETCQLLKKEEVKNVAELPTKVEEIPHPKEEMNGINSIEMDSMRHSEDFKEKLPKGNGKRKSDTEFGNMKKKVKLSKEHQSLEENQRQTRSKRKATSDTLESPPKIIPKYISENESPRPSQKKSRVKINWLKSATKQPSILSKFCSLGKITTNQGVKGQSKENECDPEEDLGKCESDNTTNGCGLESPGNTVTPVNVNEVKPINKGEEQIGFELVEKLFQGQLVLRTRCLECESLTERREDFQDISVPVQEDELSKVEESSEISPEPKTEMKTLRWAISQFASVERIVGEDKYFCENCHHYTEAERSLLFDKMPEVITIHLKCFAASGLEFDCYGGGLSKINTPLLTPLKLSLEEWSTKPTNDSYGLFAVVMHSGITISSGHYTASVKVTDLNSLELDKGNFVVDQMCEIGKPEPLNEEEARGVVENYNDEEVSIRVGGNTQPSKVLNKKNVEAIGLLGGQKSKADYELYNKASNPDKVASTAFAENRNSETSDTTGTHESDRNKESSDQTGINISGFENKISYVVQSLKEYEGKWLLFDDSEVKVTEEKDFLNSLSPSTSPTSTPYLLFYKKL
# Out of some 390,000 compounds screened, about 910 (0.23%) were called active. Inconclusive means that the source gave no clear call. Such entries were picked first, then a sample of the others. Calls follow the shape of the dose curve; as a rule, active = well fitted inhibition curve with a large enough effect; inconclusive = small, poorly fitted or top-dose-only effect; inactive = no such curve, though single readings can be large or run the other way. Potencies beside an inconclusive call are fits to weak or partial responses and may not hold up.
# Target: Ubiquitin carboxyl-terminal hydrolase 1 (Homo sapiens) (UniProt O94782)
# Experiment: Inhibitors of USP1/UAF1: Primary Screen; also: nearly all actives have a fitted effect of over 60% in size
# Conditions: recombinant USP1/UAF1, Ub-Rhodamine cleavage fluorescence; series mostly up to 57.1 µM
# Procedure, shortened: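 In this screen, compounds sit with the deubiquitinase complex (1nM) for 15 min at room temperature before Ub-Rho is added at 150nM final. Fluorescence rise is then followed for 6 reads every 60 seconds.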
# Potency is read from the fitted curve at half-maximal effect.
row,SMILES,Potency
1,CCCCn1c(N)c(N(CC(C)C)C(=O)CN(C)S(=O)(=O)c2ccc(NC(C)=O)cc2)c(=O)[nH]c1=O,"inconclusive: 6.31 µM [inhibitor, full curve]"
2,Cc1ccc(C)c(NC(=O)C(=O)NCCc2csc(-c3ccc(C(F)(F)F)cc3)n2)c1,"inconclusive: 1.12 µM [inhibitor, full curve]"
3,CCOc1ccc2nc(NC(=O)NC3CCCCC3)sc2c1,"inconclusive: 1 µM [inhibitor, full curve, poor fit]"
4,Cc1cccc(NC(=S)NC2CC3CCC(C2)N3Cc2ccco2)c1C (centres undefined),inactive
5,O=C(OCc1ccccc1Cl)c1ccc(-c2nnn(Cc3ccccc3)n2)cc1,"inconclusive: 7.08 µM [inhibitor, partial curve, poor fit]"
6,Cc1ccccc1C(=O)N/N=C/c1ccc([N+](=O)[O-])s1,inactive
7,Cc1ccccc1CSc1nc2nc(C)c(Cc3ccccc3)c(C)n2n1,inactive
8,CN(CCc1ccccc1)C(=O)c1ccc(NC(=O)Cc2ccc(NC(=O)C3CCCN(C(=O)CCc4ccccc4)C3)cc2)cc1 (centres undefined),"inconclusive: 0.282 µM [inhibitor, full curve, poor fit]"
9,Cc1noc(/C=C/c2cccnc2)c1[N+](=O)[O-],inactive
10,CCOC(=O)Cn1c(=O)cc(-c2ccccc2)c2c(C)nn(C)c21,"inconclusive: 39.8 µM [inhibitor, partial curve, poor fit]"
11,Cc1ccc(NC(=O)Cc2ccc(Cl)cc2)cc1S(=O)(=O)N1CCCCCC1,"inconclusive: 50.1 µM [inhibitor, partial curve, poor fit]"
12,CCOc1ccccc1NC(=O)C(NS(=O)(=O)c1cccc2nsnc12)c1ccccc1 (centres undefined),"inconclusive: 1.41 µM [inhibitor, full curve, poor fit]"
13,COc1ccc(N2CCN(c3nc(-c4ccccc4F)nc4ccccc34)CC2)cc1,"inconclusive: 7.94 µM [inhibitor, partial curve]"
14,O=C(O)c1ccccc1-c1ccccc1C(=O)Nc1ccc2c(c1)[nH]c(=O)c1ccccc12,"inconclusive: 39.8 µM [inhibitor, partial curve, poor fit]"
15,COc1ccc(/C=C2\CCCCC2=O)cc1,"inconclusive: 7.94 µM [inhibitor, partial curve]"
16,O=C(Nc1cc(Cl)cc(Cl)c1)c1cccc(OC(F)F)c1,inactive
17,CC1(N2CCOCC2)CC2(O)C(=[N+]1[O-])CCc1c2no[n+]1[O-] (centres undefined),"inconclusive: 22.4 µM [inhibitor, single point]"
18,CCCCNc1nc(Oc2ccc(=O)n(-c3ccccc3)n2)nc(N(C)C)n1,"inconclusive: 5.01 µM [inhibitor, partial curve]"
19,O=C(CN1CCCc2ccccc21)N/N=C/c1c(O)ccc2ccccc12,"inconclusive: 35.5 µM [inhibitor, partial curve]"
20,CC1=NN(c2ccc(F)cc2)C(=O)C1C(c1cccc(O)c1)c1c(C)[nH]n(-c2ccc(F)cc2)c1=O (centres undefined),"inconclusive: 44.7 µM [inhibitor, partial curve]"
21,CCOc1ccccc1-n1nnc(-c2nc(-c3ccccc3)no2)c1N,"inconclusive: 11.2 µM [inhibitor, partial curve, poor fit]"
22,Cc1ccoc1C(=O)NCc1occc1C(=O)O,"inconclusive: 44.7 µM [inhibitor, single point]"

row,SMILES,Potency
1,CCn1c(O)c(/C=N/N=C/c2ccc(OC)cc2)c2cc(C3=NNC(=O)CC3)ccc21,inactive
2,O=C(NC1CC1)c1cccc2c1C(=O)c1ccc(N3CCC(Cc4ccccc4)CC3)cc1S2(=O)=O,"inconclusive: 31.6 µM [inhibitor, partial curve, poor fit]"
3,CN(Cc1ccccc1)S(=O)(=O)c1ccc(F)c(C(=O)Nc2cccc(Cl)c2Cl)c1,"inconclusive: 4.47 µM [inhibitor, full curve, poor fit]"
4,CC(C)COC(=O)c1ccc2c(c1O)C(=O)c1ccccc1C2=O,inactive
5,Cc1ccc(C)c(Nc2nc(-c3cccnc3)cs2)c1,inactive
6,CC(C)(C)CC(C)(C)NC(=O)CSCC(=O)Nc1ccc2ccccc2c1,"inconclusive: 35.5 µM [inhibitor, single point]"
7,COC(=O)[C@@]12CCCCN1[C@H](c1ccc(-c3ccc4c(c3)OCO4)cc1)[C@H]1C(=O)N(C)C(=O)[C@H]12,"inconclusive: 39.8 µM [inhibitor, partial curve]"
8,Cc1cccc(N2CCN(CC(=O)Nc3ccc(S(=O)(=O)N4CCOCC4)cc3)CC2)c1C,"inconclusive: 56.2 µM [inhibitor, partial curve, poor fit]"
9,O=C(NCc1ccco1)c1cc([N+](=O)[O-])ccc1N1CCCCC1,inactive
10,Cc1ccc(-n2cc(CN(C)Cc3ncc[nH]3)c(-c3cccc(C)c3)n2)cc1,"inconclusive: 39.8 µM [inhibitor, partial curve]"
11,CCc1ccc(C(=O)COC(=O)C(Cc2c[nH]c3ccccc23)NC(=O)c2ccc(Br)cc2)cc1 (centres undefined),inactive
12,O=C(CSc1ccccc1)Nc1ccc2c(c1)OCO2,"inconclusive: 5.62 µM [inhibitor, partial curve, poor fit]"
13,CCCSc1nc(C)cc(C)c1S(=O)(=O)c1ccccc1C,inactive
14,Cc1cc(N2CCN(S(=O)(=O)c3ccc(Br)cc3)CC2)n2ncnc2n1,"inconclusive: 25.1 µM [inhibitor, partial curve, poor fit]"
15,COc1ccc(Cl)cc1NC(=O)C(=O)NCc1ccncc1,inactive
16,Cc1ccccc1S(=O)(=O)N1[C@@H](c2ccc(Br)cc2)C(C(=O)O)=CC[C@H]1c1ccc(Cl)cc1,"inconclusive: 79.4 µM [inhibitor, partial curve, poor fit]"
17,COc1ccc(OC)c(NC(=O)Cc2coc3ccc4ccccc4c23)c1,"inconclusive: 44.7 µM [inhibitor, partial curve, poor fit]"
18,CCCCCCOC(=O)C(C#N)c1nc2ccccc2nc1N1CCN(C)CC1 (centres undefined),inactive
19,Cc1ccc(Cn2nnc(C(=O)Nc3ccc(F)c(F)c3)c2N)cc1,"inconclusive: 1.78 µM [inhibitor, partial curve, poor fit]"
20,COc1cc(C(c2c(C(=O)O)[nH]c3ccccc23)c2c(C(=O)O)[nH]c3ccccc23)ccc1OCc1ccccc1,"inconclusive: 31.6 µM [inhibitor, single point]"
21,COc1ccc(C(=O)CN2C(=O)N(c3ccc(C(C)=O)cc3)S(=O)(=O)c3ccccc32)cc1,"inconclusive: 44.7 µM [inhibitor, single point]"
22,CCOC(=O)CSc1nc2ccc(C)cc2cc1C#N,"inconclusive: 25.1 µM [inhibitor, partial curve]"

# Reformatted: results already given.
row	SMILES	Potency
2	O=C(NC1CC1)c1cccc2c1C(=O)c1ccc(N3CCC(Cc4ccccc4)CC3)cc1S2(=O)=O	inconclusive: 31.6 µM [inhibitor, partial curve, poor fit]
14	Cc1cc(N2CCN(S(=O)(=O)c3ccc(Br)cc3)CC2)n2ncnc2n1	inconclusive: 25.1 µM [inhibitor, partial curve, poor fit]
18	CCCCCCOC(=O)C(C#N)c1nc2ccccc2nc1N1CCN(C)CC1 (centres undefined)	inactive

# The list goes on:

row,SMILES,Potency
1,COc1cc(NC(=O)CSc2nc3nc(C)c(Cc4ccc(C)cc4)c(C)n3n2)cc(OC)c1,"inconclusive: 11.2 µM [inhibitor, partial curve, poor fit]"
2,CC(C)NS(=O)(=O)c1ccc2nc(NC(=O)c3cncc(Br)c3)sc2c1,"inconclusive: 50.1 µM [inhibitor, partial curve, poor fit]"
3,Cc1ccc(CN2CC[C@H]3C=CCc4cccc(c43)C2)cc1,"inconclusive: 20 µM [inhibitor, partial curve]"
4,Cc1ccc(NC(=O)CN(C)S(=O)(=O)c2ccc3nc(C)sc3c2)c(C)c1,"inconclusive: 1.41 µM [inhibitor, full curve]"
5,COc1ccc(NC(=O)c2ccc3c(c2)CCN3S(=O)(=O)c2ccc(C)cc2)cc1Cl,"inconclusive: 31.6 µM [inhibitor, single point]"
6,O=C(CSc1nc2ccccc2n1Cc1ccccc1F)NCc1ccccc1,"inconclusive: 56.2 µM [inhibitor, partial curve, poor fit]"
7,CCOc1ccc(-c2cc(OC(=O)c3ccccc3)c3c(C)oc(C)c3c(=O)c2)cc1,"inconclusive: 7.94 µM [inhibitor, partial curve]"
8,NC(=S)N/N=C/c1cccc(/C=N/NC(N)=S)c1,inactive
9,O=C(NCc1ccc(F)cc1)c1cccc2c1C(=O)N(Cc1cccnc1)C2,inactive
10,CSc1nnc(-c2ccccc2)n1C,"inconclusive: 1.26 µM [inhibitor, partial curve]"
11,Nc1ncc(S(=O)(=O)NCc2ccc(Cl)cc2)cn1,inactive
12,O=C1CN(C(=O)/C=C/c2ccc(Br)cc2)CCN1,"inconclusive: 1.12 µM [inhibitor, partial curve]"
13,Cc1ccc2oc(C(=O)N3CCCCCC3)c(C)c2c1,inactive
14,CCOC(=O)C1CCN(c2ncnc3c2nnn3C)CC1,"inconclusive: 282 µM [inhibitor, partial curve, poor fit]"
15,Cc1ccccc1CNS(=O)(=O)c1ccc2c(c1)OCCO2,"inconclusive: 5.62 µM [inhibitor, partial curve]"
16,COc1cc2c(cc1OC)C(COc1ccc(F)cc1)N(C(=O)Cc1ccc(F)cc1)CC2 (centres undefined),"inconclusive: 15.8 µM [inhibitor, partial curve]"
17,Cc1cc(C)cc(NC(=O)CCc2c(C)nn(-c3ccc(N4CCCC4)nn3)c2C)c1,"inconclusive: 5.01 µM [inhibitor, single point]"
18,COc1ccc(N(CC(=O)NCCc2ccccc2)S(=O)(=O)c2ccccc2)c(OC)c1,"inconclusive: 17.8 µM [inhibitor, partial curve]"
19,CN(C)CCC[C@@]1(c2ccc(F)cc2)OCc2cc(C#N)ccc21,"inconclusive: 0.251 µM [inhibitor, full curve]"
20,COc1cc2c(cc1OC)C1CCN3C(=O)CCC3N1CC2 (centres undefined),"inconclusive: 39.8 µM [inhibitor, partial curve]"

# For reference, part of the list above:
row,SMILES,Potency
13,COc1ccc(N2CCN(c3nc(-c4ccccc4F)nc4ccccc34)CC2)cc1,"inconclusive: 7.94 µM [inhibitor, partial curve]"
14,O=C(O)c1ccccc1-c1ccccc1C(=O)Nc1ccc2c(c1)[nH]c(=O)c1ccccc12,"inconclusive: 39.8 µM [inhibitor, partial curve, poor fit]"
